{
  "source": "paper PMC6335200",
  "about": "(Journal of medicinal chemistry, 2018)",
  "system": "MDR1",
  "experiment": "in vitro",
  "conditions": "dog, MDCK-MDR1",
  "data": [
    {"smiles": "CC(C)NCC(O)COc1ccc(CC(N)=O)cc1", "note": "(stereo not drawn) [Atenolol, atenolol]", "values": [
      {"measurement": "Papp A→B at 1.5 h, 5 µM", "value": 1.21, "unit": "×10⁻⁶ cm/s"},
      {"measurement": "Papp B→A at 1.5 h, 5 µM", "value": 1.25, "unit": "×10⁻⁶ cm/s"},
      {"measurement": "efflux ratio at 1.5 h, 5 µM", "value": 1.03}
    ]}
  ]
}
